# From PubChem BioAssay AID652054 (National Center for Advancing Translational Sciences (NCATS), 2013)
# The chains behind the UniProt entries cited, without tags or fusion partners.
# UniProt P35462, whole entry, looked up: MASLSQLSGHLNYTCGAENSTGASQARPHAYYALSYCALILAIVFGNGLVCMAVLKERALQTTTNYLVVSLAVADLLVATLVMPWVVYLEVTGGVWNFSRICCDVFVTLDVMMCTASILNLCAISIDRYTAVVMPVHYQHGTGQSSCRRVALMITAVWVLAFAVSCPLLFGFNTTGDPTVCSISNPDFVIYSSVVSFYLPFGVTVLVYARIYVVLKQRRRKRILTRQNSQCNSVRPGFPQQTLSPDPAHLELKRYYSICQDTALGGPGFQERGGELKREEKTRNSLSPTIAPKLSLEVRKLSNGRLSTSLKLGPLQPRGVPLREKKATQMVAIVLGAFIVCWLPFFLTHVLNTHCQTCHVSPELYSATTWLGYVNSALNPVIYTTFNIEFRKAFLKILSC
# In all, about 360,000 compounds went through this assay and about 9,100 (2.5%) were called active. The shares of active, inactive and inconclusive entries below differ from those in the screen. Cut-off read from the data, not from the text of the source: active = max response below about -50%; inconclusive = no clear call, values can overlap the other calls; inactive = above that.
# Molecular target: D(3) dopamine receptor (Homo sapiens) (UniProt P35462)
# Test: qHTS of D3 Dopamine Receptor Antagonist: qHTS
# Conditions: D3R cells, DiscoveRx beta-arrestin luminescence, antagonist mode; active compounds read low
# How it was run: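 Cells plated overnight at 1500 cells/well, then exposed to library compounds with dopamine controls for 90 minutes at 37 degrees C. DiscoveRx reagent added for 30–60 minutes at room temperature; luminescence read, quantitative HTS format.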
# % is set by controls: 0 for no effect and ±100 for the full control effect.
row,SMILES,"max response, negative = inhibition"
1,Cc1csc(NC(=O)c2c(O)c3c(n(CC(C)C)c2=O)CCCC3)n1,inconclusive: -31%
2,COc1ccc(S(=O)(=O)n2nc(OC(=O)c3ccccc3)cc2N)cc1,inconclusive: -37.8%
3,COc1c(Cl)cnn(-c2ccc(Cl)c(Cl)c2)c1=O,inconclusive: -39.3%
4,Cn1cc(CN(CCCN2CCOCC2)C(=S)Nc2cccc(Cl)c2)c2ccccc21,inconclusive: -35.2%
5,CCC(C(=O)Nc1cccc(S(=O)(=O)N(C)c2ccccc2)c1)c1ccccc1 (centres undefined),inactive: 0%
6,Cc1cccc(NC(=O)CN2C(=O)N/C(=C/c3ccc(-c4cccc(C(=O)O)c4C)o3)C2=O)c1,inconclusive: -33.5%
7,COc1ccc(Cl)cc1C(=O)NCc1ccco1,inactive: -8.79%
8,COC(=O)c1cccc2c1NC(=O)C2=O,active: -74.9%
9,O=C(Nc1nccs1)c1cc2sccc2n1Cc1ccc(Cl)cc1,inconclusive: -31.7%
10,OCC1(Cc2ccccc2)CCCN(Cc2c[nH]c3ccccc23)C1 (centres undefined),active: -56.6%
11,O=C(COC(=O)C1CCN(S(=O)(=O)c2cccc3cccnc23)CC1)c1ccc(F)cc1,active: -52.4%
12,COc1ccc(CCNC(=O)c2cc(Cl)nc3ccccc23)cc1,inactive: 18.1%
13,CCOc1cc(-c2sc(Nc3ccccc3)n[n+]2C)ccc1OC,inconclusive: -32.9%
14,O=C(c1ccc2nc(N3CCCCC3)sc2c1)N1CCN(Cc2ccc3c(c2)OCO3)CC1,inconclusive: -30.5%
15,O=C(Nc1cccc(S(=O)(=O)Nc2ccc(Cl)cc2)c1)c1ccc2c(c1)OCCO2,inconclusive: -30.5%
16,Cc1cc(C)c(C)c(OCCCCN(C)Cc2ccccc2)c1,active: -71.2%
17,COc1ccc(-c2nnn(CC(=O)N(Cc3cccs3)C(C)C(=O)NCCC(C)C)n2)cc1OC (centres undefined),inactive: 21.9%
18,CCOC(=O)C1CCN(Cc2coc3ccc(Cl)cc3c2=O)CC1,inconclusive: -30.7%
19,Oc1ccc(Cl)cc1CNCc1ccc(Cl)cc1,inconclusive: -33.6%
20,Cc1cc(C(=O)CSc2nc(N)cc(=O)[nH]2)ccc1F,inactive: 11.7%
21,CCOC(=O)C1CCN(C(=O)CCS(=O)(=O)c2ccc3c(c2)CCN3C(=O)CC)CC1,inconclusive: -49.8%
22,COc1ccc(C(CC(=O)c2ccc3c(c2)OCO3)C(=O)O)cc1OC (centres undefined),inactive: 34%
23,O=C(NCc1ccc(Cl)cc1)c1ccc(Cn2cc(C(F)(F)F)ccc2=O)cc1,inconclusive: -36.4%

row,SMILES,"max response, negative = inhibition"
1,CC1CCN(C(=O)CSc2nc3ccccc3[nH]2)CC1,active: -53.4%
2,Cc1ccc(C(=O)CCC(=O)OCC(=O)NNC(=O)c2ccc([N+](=O)[O-])cc2)cc1,inactive: 8.78%
3,Cc1nc(C(F)(F)F)c(C(=O)N/N=C(\N)c2ccccn2)s1,active: -51.9%
4,COc1ccc(C)cc1S(=O)(=O)N1CCN(C/C=C/c2ccccc2)CC1,inconclusive: -48.9%
5,O=C(Cn1ncc(Cl)c(Cl)c1=O)N1CCc2ccccc21,inconclusive: -31.7%
6,COc1cc(OC)cc(-c2cc(N)n(S(=O)(=O)Cc3ccccc3)n2)c1,inconclusive: -33.2%
7,COc1ccc(OCC(O)CN2CCCCCC2)cc1 (centres undefined),active: -53.7%
8,CCN1/C(=C/c2ccc3cc(C)ccc3[n+]2CC)Sc2ccc3sccc3c21,inactive: -8.24%
9,Cc1nc(-c2ccccc2)sc1C(=O)CSc1ccc(Br)cc1,inconclusive: -30.7%
10,Cc1occc1-c1nnc(SCC(=O)NC(=O)NC(C)C)n1N,inactive: -24.9%
11,C/C(=N\Nc1ccc(Cl)c(C(=O)O)c1)c1ccc(N2CCOCC2)cc1,inconclusive: -48.3%
12,O=C(NCc1cccnc1)c1ccc2sc([C@@H]3O[C@H](CO)[C@H](O)[C@H](O)[C@H]3O)nc2c1,active: -55.1%
13,O=C1NC[C@@H](CCCCN2C[C@H](Cc3ccc(O)cc3)N(CCC3CCCCC3)C(=O)C2=O)N(CC2CCCCC2)C1=O,active: -62.9%
14,CC(C)c1cccc(O)c(=O)c1,inconclusive: -34.3%
15,CCCS(=O)(=O)N1CCC(C(=O)NCc2ccccc2Cl)CC1,inconclusive: -35.6%
16,Cc1ccc(S(=O)(=O)Nc2ccc(O)c3ncccc23)cc1,inactive: -11.6%
17,Cc1onc(-c2ccccc2)c1C(=O)NNC(=S)NC(=O)/C=C/c1cccs1,inconclusive: -41.6%
18,CCOC(=O)C1CCCN(Cc2c(C(=O)N3CCOCC3)nc3ccccn23)C1 (centres undefined),inconclusive: -35.8%
19,Cc1nccn1CC(O)COC1CCCCC1 (centres undefined),inconclusive: -35.3%
20,O=c1c(C/C=C/c2ccccc2)c(O)nc2n1CCCS2,inactive: -14.3%
21,CC(C)N(C(=O)[C@H]1C[C@H](CC(=O)NCCc2ccccn2)C(=O)N2CCc3c([nH]c4cc(-c5ccco5)ccc34)[C@]12C)C(C)C,inactive: -9.38%
22,CC(=O)N/N=C/c1cc(C(C)(C)C)cc(/C=N/NC(C)=O)c1O,inconclusive: -32.9%
23,Nc1c(Cl)cc(N=Nc2ccccc2)cc1Cl,inactive: 7.23%

# Compounds listed so far that have two or more sulfur atoms, in the order listed:
row,SMILES,"max response, negative = inhibition"
9,O=C(Nc1nccs1)c1cc2sccc2n1Cc1ccc(Cl)cc1,inconclusive: -31.7%
8,CCN1/C(=C/c2ccc3cc(C)ccc3[n+]2CC)Sc2ccc3sccc3c21,inactive: -8.24%
9,Cc1nc(-c2ccccc2)sc1C(=O)CSc1ccc(Br)cc1,inconclusive: -30.7%
17,Cc1onc(-c2ccccc2)c1C(=O)NNC(=S)NC(=O)/C=C/c1cccs1,inconclusive: -41.6%

# Following part:

row,SMILES,"max response, negative = inhibition"
1,CC(C)C1COS(=O)(=O)NC1CC(=O)SC(C)(C)C (centres undefined),inconclusive: -42.5%
2,COc1ccccc1S(=O)(=O)NCc1ccc(C(=O)NC2CCC(O)CC2)cc1 (centres undefined),inactive: 10.5%
3,Cc1nn(-c2cccc(C(F)(F)F)c2)c(Cl)c1/C=N/n1cnnc1,inactive: 11.6%
4,O=c1[nH]c2ccccc2c(=O)n1Cc1ccccc1,inconclusive: -50%
5,NC(=O)NC(=O)CC1S/C(=N/N=C2\CSC(=O)N2)NC1=O (centres undefined),inactive: -6.41%
6,C=C1C(=O)O[C@@H]2[C@H]1[C@@H](OC(=O)/C(C)=C/C)C/C(C)=C\C(=O)/C=C(\C)[C@@H]2O,active: -52.4%
7,O=C(CN1CCCCC1)Nc1ccccc1-c1ccccc1,inconclusive: -30.6%
8,CCOC(=O)c1c(NC(=O)C2=C(C)NC(=S)NC2c2ccc(C)cc2)sc(C)c1C (centres undefined),active: -52.6%
9,CC(=O)NCC1(c2ccccc2)CCN(CC2COc3ccccc3O2)CC1 (centres undefined),inconclusive: -44%
10,Fc1cccc(Cc2c(-c3ccccc3)nc3c(Cl)cc(C(F)(F)F)cn23)c1,inactive: -22.1%
11,COc1ccc(NC2CCN(C3CC(=O)N(c4ccc(F)c(Cl)c4)C3=O)CC2)cc1 (centres undefined),inactive: 0%
12,Cc1nc(N2CCN(c3ccccc3)CC2)nc2c1C(=O)CC(c1ccccc1)C2 (centres undefined),inconclusive: -39.5%
13,CNC(=S)N/N=C/c1cc(Br)cc(Br)c1O,inconclusive: -45.9%
14,O=C1NC[C@H](CCCCN2C[C@H](Cc3ccccc3)N(CCc3ccccc3)C(=O)C2=O)N(CCc2ccc(O)cc2)C1=O,inconclusive: -34%
15,COc1ccc(C(=O)NCCS(=O)(=O)NCc2ccccc2OC)cc1,inactive: 21.1%
16,O=S(=O)(c1cccc(-c2nnco2)c1)N1CCOCC1,inconclusive: -30%
17,CCOC(=O)c1sc(NC(=O)/C=C/c2cnn(C)c2C)c(C(=O)OC(C)C)c1C,inactive: 8.93%
18,O=C(CN1C(=O)C2(OCCO2)c2ccccc21)c1ccc(Br)cc1,inconclusive: -46.1%
19,COc1ccc2ccccc2c1CNC(C)CCc1ccccc1 (centres undefined),inconclusive: -47.4%
20,CCCOc1ccc(C(=O)N2CCCC2C(=O)O)cc1 (centres undefined),active: -60.9%
21,COc1ccc(CN(C(=O)c2cnccn2)C(C(=O)NC(C)(C)C)c2cc(OC)c(OC)c(OC)c2)cc1 (centres undefined),inconclusive: -35.5%
22,O=C1CCSc2ccc(Cl)cc2N1Cc1cccc(Cl)c1,inactive: -25.3%
23,C=CCn1cccc(/C=C/C(=O)c2ccc(C(C)(C)C)cc2)c1=S,active: -59.7%

row,SMILES,"max response, negative = inhibition"
1,Cc1ncc(CN2CCC(CO)(CCc3ccccc3)CC2)s1,inconclusive: -45%
2,CC(CC(=O)c1cccs1)CC(=O)c1cccs1,inactive: -1.16%
3,CCC(=O)c1ccc(OCC(O)CN2CCCCC2)cc1 (centres undefined),inconclusive: -32%
4,O=C1NC[C@H](c2ccccc2)N(CCCCC2CCCCC2)C1=O,active: -58.3%
5,Cc1ccc(N2CC(C(=O)Nc3nnc(SCCN4CCOCC4)s3)CC2=O)cc1C (centres undefined),inactive: 9.27%
6,Cc1ccc(-c2cc(C(=O)NCCCN3CCCC3)c3ccccc3n2)cc1C,inconclusive: -42.7%
7,O=C(NCCN1CCCCC1)Nc1cccc(Cl)c1Cl,inconclusive: -47.7%
8,O=C1CC(C(=O)N2CCc3ccccc32)CN1c1ccc(F)cc1 (centres undefined),inconclusive: -40.5%
9,CC1CC(C)CN(CCCNC(=O)Cn2ncn3cccc3c2=O)C1 (centres undefined),inconclusive: -31.4%
10,C/C(Cl)=C\Cn1c(O)c(N=NC(N)=S)c2ccccc21,inconclusive: -37.3%
11,CCN(CC)C(=O)C(=O)N/N=C/c1cccs1,inconclusive: -47.2%
12,Cc1cc(NC(=O)C2(c3ccccc3)CCCC2)no1,inconclusive: -35.7%
13,Cc1[nH]c2ccccc2c1-c1csc(NC(=O)CSCCO)n1,inconclusive: -41.2%
14,Cc1ccc(Cc2c(-c3ccc(Cl)cc3)nc3c(C)cc(Br)cn23)cc1,inconclusive: -45.8%
15,COC(=O)CCC(=O)NC(=S)Nc1sc(C)c(C)c1C(N)=O,inconclusive: -35.5%
16,Cc1ccc(S(=O)(=O)Nc2ccc3c(c2)nc(CCN2CCN(c4ccccn4)CC2)n3C)cc1,active: -61.2%
17,CCOC(=O)c1cc(-c2sc(NC(=O)c3ccccc3)nc2C)n(CCO)n1,inactive: -12.9%
18,CCSC1(SCC)N=C(N)C2(C#N)C(c3ccccc3)NC(C)=CC12C#N (centres undefined),inconclusive: -33.2%
19,C/C(=C\c1cccs1)C(=O)c1c(C)cc(C)[nH]c1=O,inactive: 16.5%
20,COc1ccc(N=C2SC(CC(=O)Nc3ccccc3)C(=O)N2CCc2ccccn2)cc1 (centres undefined),inactive: -10.3%
